Paper doi:10.1101/2023.08.08.552464
These are yes or no findings as the source states them, for the method shown. Binding seen in cells or lysates may run through a third protein. Some entries that bind do so weakly or less than the wild type.

Molecular target: T1, Mitotic-phase GTPase activating protein (MP-GAP) (human (endogenous in HeLa)) (UniProt Q6P4F7)
T1 sequence: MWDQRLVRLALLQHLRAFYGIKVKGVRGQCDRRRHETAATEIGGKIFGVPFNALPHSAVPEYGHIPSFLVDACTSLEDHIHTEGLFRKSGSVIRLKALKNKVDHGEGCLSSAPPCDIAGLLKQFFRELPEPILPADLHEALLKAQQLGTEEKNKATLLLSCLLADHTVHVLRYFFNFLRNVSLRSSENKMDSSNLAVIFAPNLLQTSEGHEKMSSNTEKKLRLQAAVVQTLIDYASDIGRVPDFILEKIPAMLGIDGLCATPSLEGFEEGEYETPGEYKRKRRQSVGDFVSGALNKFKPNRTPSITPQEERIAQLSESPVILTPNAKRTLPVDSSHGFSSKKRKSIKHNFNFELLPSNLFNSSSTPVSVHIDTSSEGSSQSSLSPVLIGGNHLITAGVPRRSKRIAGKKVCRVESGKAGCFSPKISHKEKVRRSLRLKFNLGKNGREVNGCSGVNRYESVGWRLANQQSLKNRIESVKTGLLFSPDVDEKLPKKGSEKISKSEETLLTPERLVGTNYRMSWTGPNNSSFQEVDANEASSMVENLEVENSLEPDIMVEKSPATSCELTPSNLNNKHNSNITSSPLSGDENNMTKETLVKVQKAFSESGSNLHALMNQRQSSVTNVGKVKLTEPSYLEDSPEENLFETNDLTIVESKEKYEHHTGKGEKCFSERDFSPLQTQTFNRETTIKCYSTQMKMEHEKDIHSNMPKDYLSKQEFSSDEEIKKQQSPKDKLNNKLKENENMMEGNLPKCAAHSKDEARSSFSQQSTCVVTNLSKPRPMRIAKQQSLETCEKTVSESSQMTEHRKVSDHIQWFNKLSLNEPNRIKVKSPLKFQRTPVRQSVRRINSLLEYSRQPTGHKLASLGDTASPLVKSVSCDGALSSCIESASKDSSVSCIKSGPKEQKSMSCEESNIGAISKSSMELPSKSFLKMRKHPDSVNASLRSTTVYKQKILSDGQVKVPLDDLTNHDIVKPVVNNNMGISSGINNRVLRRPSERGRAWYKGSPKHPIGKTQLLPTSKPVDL
Assay: proximity ligation

B1: Aurora A kinase (enzyme, UniProt O14965 1-403)
chain: MDRSKENCISGPVKATAPVGGPKRVLVTQQFPCQNPLPVNSGQAQRVLCPSNSSQRIPLQAQKLVSSHKPVQNQKQKQLQATSVPHPVSRPLNNTQKSKQPLPSAPENNPEEELASKQKNEESKKRQWALEDFEIGRPLGKGKFGNVYLAREKQSKFILALKVLFKAQLEKAGVEHQLRREVEIQSHLRHPNILRLYGYFHDATRVYLILEYAPLGTVYRELQKLSKFDEQRTATYITELANALSYCHSKRVIHRDIKPENLLLGSAGELKIADFGWSVHAPSSRRTTLCGTLDYLPPEMIEGRMHDEKVDLWSLGVLCYEFLVGKPPFEANTYQETYKRISRVEFTFPDFVTEGARDLISRLLKHNPSQRPMLREVLEHPWITANSSKPSNCQNKESASKQS
For B1, the binding was “binds”.
